# Source: the supplement of paper PMC9135407
# Values joined by “and” are separate entries in the source; they are usually repeats but may differ in a detail not shown here. Equal values may be shown once. Where a name gives a salt, the structure may show the parent alone. ± gives the standard deviation of the averaged measurements. Some of the results follow. Plates or batches differ in their baseline, so values are only roughly comparable.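 Primary human stellate myofibroblasts activated in culture; inactivation shown by regained lipid droplets. Readout: fraction of Hoechst-counted cells exceeding a per-plate Bodipy threshold, duplicate wells, each plate with DMSO negative and nortriptyline positive controls. Hits: control-normalized score beyond the plate's top-tenth-percentile nortriptyline wells, or among its three best wells. Final well concentrations unstated.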
# Test system: primary human hepatic stellate cells (donor 1)
# Test: percent Bodipy-positive cells; higher = more lipid droplet accumulation
# Settings: 48 h
# [1] = library stock concentration: 10 mM
# [2] = library stock concentration: 3.33 mM
# [3] = library stock concentration: 1 mM
# [4] = library stock concentration: 80 uM
# [5] = library stock concentration: 400 uM
# [6] = library stock concentration: 2 mM
compound,measurement,setting,value
CN1CCN2c3ncccc3Cc3ccccc3C2C1 (configuration not stated),percent Bodipy-positive cells,[1],44.4 ± 12%
CN1CCN2c3ncccc3Cc3ccccc3C2C1 (configuration not stated) [mirtazapine],percent Bodipy-positive cells,[1],55.7 ± 1.1%
CN1CCN2c3ncccc3Cc3ccccc3C2C1 (configuration not stated) [Mirtazepine],percent Bodipy-positive cells,[1],14.1 ± 2.4%
CN1CCN2c3ncccc3Cc3ccccc3C2C1 (configuration not stated) [Mirtazapine],percent Bodipy-positive cells,[2],22.1 ± 2.7%
same,percent Bodipy-positive cells,[1],29.1 ± 0.76%
C[C@@H]1C/C=C/C=C/C=C/C=C/[C@H](O[C@@H]2O[C@H](C)[C@@H](O)[C@H](N)[C@@H]2O)C[C@@H]2O[C@](O)(C[C@@H](O)C[C@H]3O[C@@H]3/C=C/C(=O)O1)C[C@H](O)[C@H]2C(=O)O [Natamycin],percent Bodipy-positive cells,library stock concentration: 3 mM,11.6 ± 3.4%
same,percent Bodipy-positive cells,[2],10.3 ± 3.2%
same,percent Bodipy-positive cells,[1],8.76 ± 1.5%
CC(C(O)c1ccc(O)cc1)N1CCC(Cc2ccccc2)CC1 (configuration not stated) [Ifenprodil hemitartrate],percent Bodipy-positive cells,[1],39.8 ± 8.9%
CC(C(O)c1ccc(O)cc1)N1CCC(Cc2ccccc2)CC1 (configuration not stated) [Ifenprodil],percent Bodipy-positive cells,library stock concentration: 6.1 mM,25 ± 4.8%
same,percent Bodipy-positive cells,library stock concentration: 9.6 mM,32.2 ± 0.76%
CC(C(O)c1ccc(O)cc1)N1CCC(Cc2ccccc2)CC1 (configuration not stated) [Ifenprodil tartrate],percent Bodipy-positive cells,,44.7 ± 2.3%
CC(C(O)c1ccc(O)cc1)N1CCC(Cc2ccccc2)CC1 (configuration not stated) [Ifenprodil Tartrate],percent Bodipy-positive cells,[2],19.1 ± 1.8%
same,percent Bodipy-positive cells,[1],58.9 ± 6.3%
CCCCCCCCCCCCCCCC(=O)N[C@@H](COP(=O)(O)O)C(=O)O,percent Bodipy-positive cells,[3],9.81 ± 5.7%
CCCCC[C@H](O)/C=C/[C@H]1C2COC(C2)[C@@H]1C/C=C/CCCC(=O)O (some centres not stated),percent Bodipy-positive cells,[3],20.5 ± 3.6%
CCC1=C[C@H]2CN(C1)Cc1c([nH]c3ccccc13)[C@@](C(=O)OC)(c1cc3c(cc1OC)N(C)[C@H]1[C@@](O)(C(=O)OC)[C@H](OC(C)=O)[C@]4(CC)C=CCN5CC[C@]31[C@@H]54)C2.O=C(O)C(O)C(O)C(=O)O,percent Bodipy-positive cells,[1],99.58 ± 0.17%
O=c1ccn([C@@H]2O[C@H](COP(=O)(O)OP(=O)(O)O)[C@@H](O)[C@H]2O)c(=O)[nH]1 [Uridine 5'-diphosphate sodium],percent Bodipy-positive cells,[1],14.4 ± 2.3%
O=C1Nc2ccc(Br)cc2/C1=C/c1cc2c([nH]1)CCCC2 [VEGF Receptor 2 Kinase Inhibitor II],percent Bodipy-positive cells,[2],79.5 ± 8.9%
"Cc1ccc(OCC(O)C(C)NC(C)C)c2c1CCC2 (configuration not stated) [ICI-118,551 hydrochloride]",percent Bodipy-positive cells,[1],46.1 ± 8.9%
CCn1c(=O)c2c(nc(/C=C/c3ccc(OC)c(OC)c3)n2C)n(CC)c1=O [Istradefylline],percent Bodipy-positive cells,[2],16.4 ± 2.6%
same,percent Bodipy-positive cells,[1],27.1 ± 2.3%
CCCn1c(=O)c(C)cn2nc(N)nc12,percent Bodipy-positive cells,[1],21.9% and 6.16%
COc1ccc(N(C(=O)Nc2c(C)cccc2C)c2cc(Nc3ccc(N4CCN(C)CC4)cc3)ncn2)c(OC)c1,percent Bodipy-positive cells,[4],8.15 ± 0.68%
same,percent Bodipy-positive cells,[5],20.5 ± 3%
same,percent Bodipy-positive cells,[6],55.1 ± 2.2%
NC(C(=O)O)C(O)C(=O)O (racemic) [DL-threo-beta-hydroxyaspartic acid],percent Bodipy-positive cells,[1],38.2 ± 15%
c1ccc2cc(C3=NCCN3)ncc2c1 [BU 226 hydrochloride],percent Bodipy-positive cells,[1],8.3 ± 1.6%
CN([C@@H](Cc1ccc(OS(=O)(=O)c2cccc3cnccc23)cc1)C(=O)N1CCN(c2ccccc2)CC1)S(=O)(=O)c1cccc2cnccc12,percent Bodipy-positive cells,[4],5.88 ± 0.82%
same,percent Bodipy-positive cells,[5],7.92 ± 2.6%
same,percent Bodipy-positive cells,[6],11.9 ± 6.1%
same,percent Bodipy-positive cells,[1],9.956 ± 0.023%
CC1=CC(=O)c2ccccc2C1=O [Menadione],percent Bodipy-positive cells,,98.9 ± 1.6%
O=C(O)C1=CC(=C(c2ccc(O)c(C(=O)O)c2)c2ccc(O)c(C(=O)O)c2)C=CC1=O [Aurintricarboxylic acid],percent Bodipy-positive cells,[1],9.28 ± 3%
CCCCC[C@H](O)/C=C/[C@@H]1C2C[C@H](CCCCC(=O)O)O[C@@H]2C[C@H]1O (stereo partly drawn) [6.beta.-Prostaglandin I1],percent Bodipy-positive cells,[3],28.4 ± 6%
Nc1nc2c(cnn2CCc2ccccc2)c2nc(-c3ccco3)nn12,percent Bodipy-positive cells,[1],57.5 ± 8.2%
CCOC(=O)c1c(C)[nH]c(/C=C2\C(=O)Nc3ccccc32)c1C [VEGF Receptor 2 Kinase Inhibitor I],percent Bodipy-positive cells,[2],16.8 ± 4%
"CN1C(=O)/C(=C2\Nc3ccccc3\C2=N\O)c2ccc(Br)cc21 [GSK-3 Inhibitor IX, Control, MeBIO]",percent Bodipy-positive cells,[2],84.2 ± 2%
CNC(=O)c1c(F)cccc1Nc1nc(Nc2cc3c(cc2OC)CCN3C(=O)CN(C)C)nc2[nH]ccc12,percent Bodipy-positive cells,[1],98.61 ± 0.25%
COc1ccc2c(c1)c(CC(=O)O)c(C)n2C(=O)c1ccccc1 [1-benzoyl-5-methoxy-2-methylindole-3-acetic acid],percent Bodipy-positive cells,[1],34.8 ± 1.5%
NC[C@H]1O[C@H](O[C@H]2[C@H](O)[C@@H](O[C@H]3O[C@H](CO)[C@@H](O)[C@H](N)[C@H]3O)[C@H](N)C[C@@H]2N)[C@H](N)C[C@@H]1O [Tobramycin],percent Bodipy-positive cells,,34.1 ± 11%
C=CCOc1ccccc1OCC(O)CNC(C)C (configuration not stated) [Oxprenolol hydrochloride],percent Bodipy-positive cells,,16.6 ± 9.8%
O=C(/C=C/c1cccc(S(=O)(=O)Nc2ccccc2)c1)NO [Belinostat (PXD101)],percent Bodipy-positive cells,[2],58.9 ± 4.1%
same,percent Bodipy-positive cells,[1],69.5 ± 15%
O=C(/C=C/c1cccc(S(=O)(=O)Nc2ccccc2)c1)NO [Belinostat],percent Bodipy-positive cells,[4],41.6 ± 2.9%
same,percent Bodipy-positive cells,[5],36.1 ± 1.4%
same,percent Bodipy-positive cells,[6],66.8 ± 0.69%
same,percent Bodipy-positive cells,[1],87 ± 2.3%
Cc1c(N)c(=O)n(-c2ccccc2)n1C [Ampyrone],percent Bodipy-positive cells,,31.9 ± 2.9%
Nc1cc2c(ncn2CCOCP(=O)(O)O)c(=O)[nH]1 [PMEG hydrate],percent Bodipy-positive cells,[1],38.7 ± 12%
O=C(O)c1ccc[n+]([O-])c1,percent Bodipy-positive cells,[1],28.1 ± 2%
CC1(C)Cc2c(-c3ccccc3)c(-c3ccc(Cl)cc3)c(CC(=O)O)n2C1 [Licofelone],percent Bodipy-positive cells,[2],6.9 ± 2.5%
same,percent Bodipy-positive cells,[1],13.8 ± 5.7%
CC(C)(C)c1cc(NC(=O)Nc2ccc(-c3cn4c(n3)sc3cc(OCCN5CCOCC5)ccc34)cc2)no1,percent Bodipy-positive cells,[4],9.76 ± 1.8%
same,percent Bodipy-positive cells,[5],14.4 ± 7.5%
same,percent Bodipy-positive cells,[6],24.8 ± 4%
same,percent Bodipy-positive cells,[1],43.8 ± 12%

# 3 records drawn at random from the list so far:
compound,measurement,setting,value
COc1ccc(N(C(=O)Nc2c(C)cccc2C)c2cc(Nc3ccc(N4CCN(C)CC4)cc3)ncn2)c(OC)c1,percent Bodipy-positive cells,[4],8.15 ± 0.68%
same,percent Bodipy-positive cells,[6],55.1 ± 2.2%
CCC1=C[C@H]2CN(C1)Cc1c([nH]c3ccccc13)[C@@](C(=O)OC)(c1cc3c(cc1OC)N(C)[C@H]1[C@@](O)(C(=O)OC)[C@H](OC(C)=O)[C@]4(CC)C=CCN5CC[C@]31[C@@H]54)C2.O=C(O)C(O)C(O)C(=O)O,percent Bodipy-positive cells,[1],99.58 ± 0.17%
